Data as given in PubChem BioAssay AID1671190 (National Center for Advancing Translational Sciences (NCATS), 2021).
Where “and” joins values, the source holds several entries; their conditions need not be identical. Identical values can stand only once. About 6,100 (1.1%) of roughly 580,000 compounds were called active. Inconclusive means that the source gave no clear call. Such entries were picked first, then a sample of the others. The call rests on the fitted dose curve; in most records, active means well fitted inhibition curve with a large enough effect; inconclusive means small, poorly fitted or top-dose-only effect, or another doubt; inactive means no such curve, though single readings can be large or run the other way. Where the call is inconclusive, the potency comes from a doubtful curve fit.

Amino acid sequences for entries named in this document (tags omitted). A change or cut given only in a name is not applied to a line headed by its entry.
UniProt P18054: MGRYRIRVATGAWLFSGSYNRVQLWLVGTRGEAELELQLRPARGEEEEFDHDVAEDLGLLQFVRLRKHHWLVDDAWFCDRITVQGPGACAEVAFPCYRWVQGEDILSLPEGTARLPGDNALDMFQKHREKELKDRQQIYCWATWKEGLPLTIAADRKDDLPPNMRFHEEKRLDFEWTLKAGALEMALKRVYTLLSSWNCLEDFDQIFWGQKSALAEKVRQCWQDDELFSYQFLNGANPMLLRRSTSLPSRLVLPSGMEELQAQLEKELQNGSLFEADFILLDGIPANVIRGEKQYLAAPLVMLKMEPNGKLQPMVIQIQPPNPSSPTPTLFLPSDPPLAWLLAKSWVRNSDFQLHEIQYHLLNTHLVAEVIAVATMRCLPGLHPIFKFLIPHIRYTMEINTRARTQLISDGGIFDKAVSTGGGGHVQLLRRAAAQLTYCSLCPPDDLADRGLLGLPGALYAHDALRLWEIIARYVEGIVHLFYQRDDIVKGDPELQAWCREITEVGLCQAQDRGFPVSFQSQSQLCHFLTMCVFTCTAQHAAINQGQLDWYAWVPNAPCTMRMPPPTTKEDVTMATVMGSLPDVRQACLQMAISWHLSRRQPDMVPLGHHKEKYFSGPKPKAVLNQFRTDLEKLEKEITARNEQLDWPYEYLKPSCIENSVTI

biological target: Polyunsaturated fatty acid lipoxygenase ALOX12 (Homo sapiens) (UniProt P18054); experiment: Primary qHTS assay for inhibitors of human arachidonate 12S-lipoxygenase (ALOX12): Round 2; conditions: purified 12hLO, xylenol orange hydroperoxide absorbance; series mostly up to 108 µM
Summary of the method: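 Purified human 12hLO at 150 nM in 25 mM Hepes, 0.01% Triton X-100, pH 7.0, preincubated 15 min at room temperature with compound. Reaction started with 40 uM arachidonic acid, 30 min at room temperature. Hydroperoxide measured by Fe-xylenol orange, 573/405 nm absorbance ratio.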
Potency means the concentration at half of the fitted maximal effect.

Row | SMILES | Potency
1 | COC(=O)C(=O)/C=C(\O)c1ccc(C)cc1 | inconclusive: 89.1 µM [inhibitor, partial curve, poor fit]
2 | Cc1cc(-c2ccc(S(=O)(=O)N3CCN(C)CC3)s2)on1 | inactive
3 | CCC(Oc1ccccc1)C(=O)Nc1cc(C)on1 (stereo not given) | inactive
4 | O=C(C1=Cc2ccccc2OC1)N1CCN(S(=O)(=O)c2cccc(Cl)c2)CC1 | inconclusive: 3.16 µM [inhibitor, full curve, poor fit]
5 | O=C(Nc1ccccc1O)c1cccc(S(=O)(=O)N2CCOCC2)c1 | inconclusive: 0.316 µM [inhibitor, full curve, poor fit]
6 | CCOC(=O)c1sc(=S)n(C)c1NC(=O)c1ccccc1C | inconclusive: 44.7 µM [inhibitor, partial curve, poor fit]
7 | COc1ccc(NC(=O)Cc2c(F)cccc2Cl)cc1 | inactive
8 | Cc1ccc(-n2ncc(-c3nn[nH]n3)c2N)cc1 | inconclusive: 35.5 µM [inhibitor, partial curve, poor fit]
9 | C=CC[C@H]1Cc2c(cccc2[N+](=O)[O-])[C@H](CC=C)N1 | inconclusive: 50.1 µM [inhibitor, partial curve, poor fit]
10 | Cc1noc(-c2cccs2)c1C(=O)NC1CCc2ccccc21 (stereo not given) | inactive
11 | O=S(Cc1ccc(Cl)cc1)Cc1cccc(F)c1 (stereo not given) | inconclusive: 44.7 µM [inhibitor, single point]
12 | CCN(C(=O)COc1ncnc2ccccc12)c1cccc2ccccc12 | inconclusive: 79.4 µM [inhibitor, partial curve, poor fit]
13 | CCOc1ccc(Cc2c(O)nc(SC)[nH]c2=O)cc1 | inactive
14 | COc1ccc(-c2csc(-c3cccs3)n2)cc1OC | inconclusive: 100 µM [inhibitor, single point]
15 | O=C(CN(c1ccccc1)S(=O)(=O)c1ccccc1)Nc1ccc(F)cc1 | inconclusive: 126 µM [inhibitor, single point]
16 | CN(C)C(=N)c1ccc(N(C)C)cc1 | inactive
17 | Cc1ccc(N2C(=O)N(CC(=O)N(C)Cc3ccccc3)C(=O)C2C)cc1 (stereo not given) | inactive
18 | COc1ncnc2c1ncn2CCCNCCCN1CCCC1=O | inconclusive: 39.8 µM [inhibitor, single point]
19 | CCCC1CCC(c2ccc(-c3ccc(CC)cn3)cc2F)CC1 (stereo not given) | inactive
20 | CCNC(=O)Cc1ccc(S(=O)(=O)N2CCOCC2)s1 | inactive
21 | COC(=O)c1nc2ccccc2nc1N1CCN(c2ccc(F)cc2)CC1 | inactive
22 | COc1ccc(CNC(=O)c2cc3c(=O)n(C)c4ccccc4c3n2C)c(OC)c1 | inconclusive: 126 µM [inhibitor, partial curve, poor fit]
23 | CCn1cc(S(=O)(=O)NCCc2noc(-c3ccncc3)n2)cn1 | inactive
24 | Cc1cccc(CC(=O)N2CCC3(CC2)CC(N(C2CC2)S(C)(=O)=O)CCO3)c1 (stereo not given) | inactive

Row | SMILES | Potency
25 | CCN1CCN(CCC(=O)Nc2cc(OC)ccc2OC)CC1 | inconclusive: 31.6 µM [inhibitor, partial curve, poor fit]
26 | Cc1ccc(C(=O)NCC(=O)N(C)Cc2ccccc2C)s1 | inactive
27 | CC(=O)NC(c1ccccc1)c1nc(-c2cncnc2)cs1 (stereo not given) | inconclusive: 79.4 µM [inhibitor, partial curve, poor fit]
28 | CC(=O)c1ccc([C@@H]2C[C@]34CN(Cc5cccc(C(F)(F)F)c5)S(=O)(=O)[C@H]3C[C@H]2O4)cc1 | inactive
29 | COc1ccccc1NCC(=O)c1ccc(Cl)cc1 | inconclusive: 31.6 µM [inhibitor, partial curve, poor fit]
30 | COC(=O)c1cccc2c1-c1ccccc1/C2=N\O | inconclusive: 112 µM [inhibitor, single point]
31 | CNC(=O)CN(C1CCCCC1)S(=O)(=O)c1ccc(OC)c(Cl)c1 | inactive
32 | C/C(=N\NC(=S)NC1CCCCC1)c1ccc(Cl)c(Cl)c1 | inactive
33 | COc1ccc(N(CC(=O)N2CCN(c3ccc(Cl)cc3)CC2)S(=O)(=O)c2c(C)n[nH]c2C)cc1 | inconclusive: 44.7 µM [inhibitor, partial curve, poor fit]
34 | CCCCn1c(=O)[nH]c(=O)c2c1nc(CCC(=O)Nc1ccc(C)cc1)n2CC(C)C | inactive
35 | COc1cccc(-n2c(-c3ccc4[nH]c(C)c(C)c4c3)n[nH]c2=S)c1 | inconclusive: 39.8 µM [inhibitor, partial curve, poor fit]
36 | OCC1CCCCN1CC(O)COC(c1ccc(F)cc1)c1ccc(F)cc1 (stereo not given) | inconclusive: 0.447 µM [inhibitor, full curve, poor fit]
37 | Cc1cccc2c1N(Cc1ccccc1OCCC(C)C)C(=O)C2=O | inactive
38 | CC(C)c1ccc(OCC(=O)Nc2cc(C(F)(F)F)ccc2N2CCOCC2)cc1 | inactive
39 | COC(=O)C(C)N1C(=O)S/C(=C\c2ccc(-c3ccc(C(=O)O)cc3C)o2)C1=O (stereo not given) | inconclusive: 31.6 µM [inhibitor, partial curve]
40 | COc1cccc(-n2c(SCC(N)=O)nc3c([nH]c4ccccc43)c2=O)c1 | inactive
41 | COc1ccc2c(c1)c(=O)c(S(=O)(=O)c1ccccc1)cn2CC(=O)Nc1ccc(C)c(Cl)c1 | inconclusive: 39.8 µM [inhibitor, partial curve, poor fit]
42 | COc1ccc2[nH]c3c(=O)n(CCCN4CCOCC4)cnc3c2c1 | inactive
43 | S=C(NCCCc1cnc[nH]1)NCCCN(Cc1ccc(Cl)c(Cl)c1)c1ccc(Br)cn1 | active: 22.4 µM and inconclusive: 44.7 µM [inhibitor, partial curve, poor fit]
44 | COc1ccc(NC(=O)CN(C)C(=O)c2cccc(NS(=O)(=O)c3ccc(Br)cc3)c2)cc1 | inconclusive: 35.5 µM [inhibitor, partial curve, poor fit]
45 | COc1ccccc1C(=O)NC1CCN(c2cc(-c3ccc(Cl)cc3)[nH]n2)CC1 | inconclusive: 50.1 µM [inhibitor, partial curve]
46 | C#CCN1C=CC(=O)[C@@H](OC(=O)Nc2ccc(Cl)cc2)[C@H]1c1ccccc1Br | inconclusive: 56.2 µM [inhibitor, partial curve, poor fit]
47 | FC(F)(F)c1ccc2c(c1)nc1n2[C@@H](CNC2CCOCC2)COC1 | inactive
48 | Cc1ccc(C(=O)NNC(=S)Nc2ccccc2)cc1 | inconclusive: 79.4 µM [inhibitor, single point]

Row | SMILES | Potency
49 | Cc1nc2c(C)cccn2c1/C(O)=C1\C(=O)C(=O)N(CCN(C)C)C1c1ccc(Br)cc1 (stereo not given) | inconclusive: 3.98 µM [inhibitor, full curve, poor fit]
50 | COC(=O)C1CN(Cc2cn(Cc3ccc(F)cc3)nn2)CCS(=O)(=O)N1Cc1ccc(F)cc1 (stereo not given) | inconclusive: 56.2 µM [inhibitor, single point]
51 | Cc1ccccc1Nc1cc(C)c2ccccc2n1 | inactive
52 | CC(C)CC(=O)Nc1nnc(S(=O)(=O)N(C)Cc2ccc(Cl)cc2)s1 | inconclusive: 126 µM [inhibitor, partial curve, poor fit]
53 | COC(=O)c1cccc(NC(=O)/C(=C\c2ccco2)NC(=O)c2ccco2)c1 | inconclusive: 89.1 µM [inhibitor, single point]
54 | O=C(CSc1nnc(-c2ccco2)n1CC1CCCO1)c1ccccc1 (stereo not given) | inconclusive: 14.1 µM [inhibitor, partial curve, poor fit]
55 | C=CCNc1nc(C2CC2)nc2c1CCN(C(=O)c1cscn1)CC2 | inactive
56 | Cc1ccc(-c2ccc(=O)n(Cc3c(F)cccc3Cl)n2)cc1 | inconclusive: 112 µM [inhibitor, single point]
57 | C=CC[C@H](CC(=O)N(CCO)Cc1ccccc1)C(=O)N[C@H](COC(=O)[C@H](CC=C)CC(=O)OC(C)(C)C)Cc1c[nH]c2ccccc12 | inactive
58 | CCOc1ccc(/C=C(\C#N)C(=O)NCC2CCCO2)cc1OCC (stereo not given) | inconclusive: 112 µM [inhibitor, partial curve, poor fit]
59 | CCOC(=O)c1cnc(Nc2ccc(C)c(F)c2)c2ccccc12 | inconclusive: 50.1 µM [inhibitor, partial curve, poor fit]
60 | O=C(Cn1nc(C(=O)O)c2ccccc2c1=O)Nc1cc(Cl)cc(Cl)c1 | inconclusive: 50.1 µM [inhibitor, partial curve, poor fit]
61 | CCOC(=O)c1cc(S(=O)(=O)Nc2cc(F)ccc2C)[nH]n1 | inconclusive: 7.94 µM [inhibitor, partial curve, poor fit]
62 | CC(Sc1ccc(Br)cc1)c1nc(-c2ccco2)no1 (stereo not given) | inconclusive: 44.7 µM [inhibitor, partial curve, poor fit]
63 | Cc1ccc(-c2cc3ccccn3c2C=O)cc1C | active: 15.8 µM
64 | Cc1cc2c(-c3cccc(S(C)(=O)=O)c3)nc(-c3c(C)noc3C)cc2[nH]1 | inconclusive: 100 µM [inhibitor, partial curve]
65 | Fc1ccccc1/C=N/N1CCN(Cc2ccccc2Cl)CC1 | active: 12.6 µM
66 | Cc1ccc([S+](=O)([O-])N2CCC3OCCN(C(C)C)C(=O)C3C2)cc1 (stereo not given) | inactive
67 | O=C(OCc1ccccc1)c1ccc(O)cc1 | inconclusive: 158 µM [inhibitor, single point]
68 | CCOC(=O)N1CCc2c(sc3c2C(=O)NC(c2cc(OC)c(OC)c(OC)c2)N3)C1 (stereo not given) | inactive
69 | CCN(CC)c1ccc(C(=O)NC(=S)N2CCN(Cc3ccc4c(c3)OCO4)CC2)cc1 | inconclusive: 39.8 µM [inhibitor, partial curve]
70 | COc1ccccc1NC(=O)c1c(NCc2ccc(C)o2)sc2c1CCCCC2 | inconclusive: 126 µM [inhibitor, single point]
